We go through 54 compounds from PMC12548414.

The structures appear in SMILES notation. Hit rate of the full screen: of about 1,600 compounds, about 20 (1%) showed an effect of 50% or more. The list shows a part of the results.

This test deals with T1, E. coli pLC1021 (luc-trpAt trans-translation reporter).
T1 construct: pLC1021 luc-trpAt reporter strain
Details: species or system Escherichia coli pLC1021; luc-trpAt non-stop luciferase reporter; luminescence rises when trans-translation is inhibited; normalized to KKL-35 and DMSO. Conditions: reporter signal, KKL-35 = 100%; rise means trans-translation inhibition; 2 h, 20 µM. Put shortly:
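Luminescence (560 nm, 10 min after Bright-Glo) reports luciferase that escapes trans-translation tagging, measured after 2 h room-temperature treatment with 20 µM compound. Each plate was scaled between DMSO (negative) and 20 µM KKL-35 (positive) controls. Compounds scoring one standard deviation above the median counted as positive; at least two biological repeats.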
Consider `COc1ccccc1N1CCN(c2nc(C)nc3c2oc2ccccc23)CC1` [KKL-0900], for which the “% activation” value came to 4%.

Regarding `CCOc1cc2c3c(c1)C1(C(=O)N3C(C)(C)C=C2C)C(C#N)=C(N)Oc2cc(O)ccc21` (stereo not drawn) [KKL-1341], the “% activation” value amounted to 0%.

As to `CC(=O)N1CC2(CCN(CC(=O)Nc3ccc(Cl)cc3)CC2)Nc2ccccc21` [KKL-1346], the “% activation” value was determined as 0%.

As for `Cc1cc2c(cc1NCc1cc3c(C)nn(-c4ccccc4)c3nc1O)OCCO2` [KKL-0349], the “% activation” value worked out at 0%.

For the compound `Cc1nc(-c2ccccc2Br)cc([C@H]2CN3CC[C@H]2C[C@@H]3CNC(=O)c2ccc(C(C)(C)C)cc2)n1` [KKL-1598], the “% activation” value is reported as 0%.

Regarding `CCOC(=O)Cc1csc(NC(=O)c2c(O)c3ccccc3n(CCC(C)C)c2=O)n1` [KKL-1615], the “% activation” value amounted to 75%.

With `CC1=NN(c2nc3ccccc3s2)C(=O)C1Cc1cccc2ccccc12` (stereo not drawn) [KKL-0363], the “% activation” value is 9%.

Turning to `O=c1oc2ccccc2n1C1CCN(Cc2nc3ccccc3n2Cc2ccccc2)CC1` [KKL-0441], the “% activation” value stood at 2%.

`COc1ccc(-c2nc(NC(=O)c3cnc(SC)nc3)sc2C)cc1F` [KKL-0923]: the “% activation” value was found to be 0%.

Regarding `CC1CCN(c2ccc(NC(=O)c3ccc([N+](=O)[O-])o3)cc2)CC1` [KKL-1560], the “% activation” value stood at 0%.

For `CCOC(=O)COc1cc2oc(=O)cc(CC)c2cc1Cl` [KKL-0855], the “% activation” value amounted to 0%.

As to `Clc1ccc(OCCCNCc2ccccc2)c2ccccc12` [KKL-0417], the “% activation” value was 48%.

With `CCn1c(/C=C/c2ccc([N+](=O)[O-])o2)nc2ccccc2c1=O` [KKL-0972], the “% activation” value came out at 2%.

For the compound `CN(Cc1nc(O)c2ccccc2n1)Cc1nc(O)c2sccc2n1` [KKL-0832], the “% activation” value amounted to 0%.

As for `CC(=O)Nc1cccc(C(=O)/C=C/c2ccc(Br)cc2)c1` [KKL-0980], the “% activation” value is 0%.

`O=C(Cc1ccc(F)cc1)Nc1ccc(Cl)c(C(F)(F)F)c1` [KKL-0737]: the “% activation” value was determined as 14%.

As for `CCOc1ccc(OCC(=O)Nc2cc(C)cc(C)c2)cc1` [KKL-1450], the “% activation” value is 7%.

As for `c1ccc(-c2nc(NCc3ccco3)c3ccccc3n2)nc1` [KKL-0369], the “% activation” value amounted to 0%.

In the case of `CCCC(=O)N1CCN(c2ccc(NC(=O)c3ccc(-c4ccc(Cl)cc4)o3)cc2Cl)CC1` [KKL-1461], the “% activation” value was 0%.

With `COc1cccc(-c2ccccc2NC(=O)C2CCN(CCC(C)c3ccccc3)CC2)c1` (stereo not drawn) [KKL-1158], the “% activation” value came to 0%.

Turning to `Cc1occc1C(=O)Nc1nc(-c2ccccn2)nc2ccsc12` [KKL-1875], the “% activation” value came to 11%.

For the compound `COc1nc(SC)nc2sc3c(c12)CCC3` [KKL-0590], the “% activation” value came out at 4%.

As for `CNc1nc(SC)nc2ccsc12` [KKL-1715], the “% activation” value amounted to 5%.

Regarding `O=C(c1ccc2oc(Cc3ccccc3)nc2c1)N1CCCCC1c1cccnc1` (stereo not drawn) [KKL-0637], the “% activation” value turned out to be 4%.

For `COc1ccc(NC(=O)CC23CC4CC(CC(C4)C2)C3)cc1[N+](=O)[O-]` [KKL-0714], the “% activation” value was determined as 5%.

On to `COc1ccccc1CNCc1cc2c(C)nn(-c3ccc(F)cc3)c2nc1O` [KKL-1035], for which the “% activation” value stood at 8%.

As to `CC(C)c1ccc(OCC(=O)NNC(=S)NC(=O)c2ccco2)c(Br)c1` [KKL-0743], the “% activation” value was 24%.

With `Cc1nc2ccccn2c1C(=O)Nc1ccc(C(C)(C)C)cc1` [KKL-1770], the “% activation” value was 0%.

On to `Cc1nnc(NC(=O)c2ccc3ccccc3c2)o1` [KKL-0946], for which the “% activation” value came to 0%.

Take `FC(F)(F)Oc1ccc(-c2cc3ccncc3cc2OC2CCNCC2)cc1` [KKL-1694]: the “% activation” value came to 8%.

On to `Cn1cccc1CN1CCC2(CC1)CC1(CO2)Nc2cc(Cl)ccc2-n2cccc21` (stereo not drawn) [KKL-1233], for which the “% activation” value was 1%.

On to `C1=C(CCNc2[nH]cnc3c4ccccc4nc2-3)CCCC1` [KKL-1027], for which the “% activation” value is given as 0%.

As to `CCn1ccnc1CN(C)Cc1cn(-c2ccc(C)cc2)nc1-c1ccc(F)cc1` [KKL-0657], the “% activation” value is given as 0%.

With `O=C(NCc1ccc2c(c1)OCO2)c1cnn2c1NC(c1cccs1)CC2C(F)(F)F` (stereo not drawn) [KKL-0568], the “% activation” value was 0%.

With `Cc1cc(Cl)ccc1NC(=O)CCc1ccc(S(=O)(=O)NC(C)C)cc1` [KKL-1581], the “% activation” value is on record as 0%.

With `CCOc1ccccc1NC(=O)CSc1nc2ccc(NC(=O)c3ccccc3Cl)cc2s1` [KKL-1267], the “% activation” value was found to be 0%.

Consider `CCn1c(/C=C/c2ccc([N+](=O)[O-])o2)nc2ccc(I)cc2c1=O` [KKL-0295], for which the “% activation” value came to 0%.

Regarding `O=C(Nc1nc2c(s1)CCCc1cccnc1-2)c1ccccc1C(F)(F)F` [KKL-1736], the “% activation” value was 26%.

On to `O=C(C1CCN(c2nnc(-n3cccc3)s2)CC1)N1CCC(Cc2ccccc2)CC1` [KKL-1838], for which the “% activation” value was 1%.

Turning to `O=C(Nc1nnc(-c2ccc(Cl)cc2)o1)c1cccc(C(F)(F)F)c1` [KKL-0209], the “% activation” value was determined as 24%.

In the case of `CC(=O)OCCNc1cc(SCc2ccco2)c2nonc2c1[N+](=O)[O-]` [KKL-1152], the “% activation” value worked out at 0%.

On to `c1cc(N2CCN(c3nncc(-c4ccc(C5CCCCC5)cc4)n3)CC2)ccn1` [KKL-0322], for which the “% activation” value was found to be 0%.

With `COc1cccc(C(=O)Oc2ccccc2/C=C/C(=O)c2cc3ccccc3o2)c1` [KKL-0944], the “% activation” value stood at 0%.

Consider `CCn1c(=O)c(=O)[nH]c2cc(C(=O)Nc3ccccc3Nc3ccc(OC)cc3)ccc21` [KKL-1691], for which the “% activation” value was 2%.

On to `O=C(Nc1ccc(-n2cccn2)cc1)C1CCCCN1Cc1cccc2nonc12` (stereo not drawn) [KKL-0477], for which the “% activation” value is reported as 1%.

For the compound `C(=C\c1nc(N2CCCC2)c2ccccc2n1)/c1ccccc1` [KKL-1269], the “% activation” value worked out at 0%.

As for `COc1ccc(OCc2n(CC(=O)OC3CC(C)CCC3C(C)C)c3ccccc3[n+]2C)cc1` (stereo not drawn) [KKL-1510], the “% activation” value turned out to be 0%.

Take `O=C(Oc1cccc2cccnc12)c1ccccc1Br` [KKL-1385]: the “% activation” value is recorded as 0%.

Turning to `O=C(c1cc(COc2ccc3c(c2)CCCC3)on1)N1CCCCO1` [KKL-1184], the “% activation” value is listed as 0%.

As for `Cc1ccc(-c2c[n+](CC(=O)Nc3nc(-c4ccc(F)cc4)cs3)c3n2CCC3)cc1` [KKL-0377], the “% activation” value amounted to 21%.

With `COC(=O)COc1cccc(NC(=O)c2cccc(C)c2)c1` [KKL-1491], the “% activation” value is on record as 1%.

Take `CC(=O)NC(=S)NNC(=O)c1ccc(C)c(Br)c1` [KKL-0065]: the “% activation” value turned out to be 186%.

For `CC1=C2C(=O)CCCC2=NC1C(=O)NCCOc1ccccc1` (stereo not drawn) [KKL-1733], the “% activation” value is 0%.

Regarding `c1ccc(CCNc2nc3ccccc3[nH]2)cc1` [KKL-1103], the “% activation” value turned out to be 0%.
